Laboratory results as given in article PMC8642553.
These are yes or no findings as the source states them, for the method shown. Binding seen in cells or lysates may run through a third protein. Some binding calls cover weakened binding; strength is not graded here.

Chains of the proteins cited; added tags and fusions are not shown. Lines headed by an entry give the natural chain unless they say otherwise; changes in a name come on top.
UniProt Q61188: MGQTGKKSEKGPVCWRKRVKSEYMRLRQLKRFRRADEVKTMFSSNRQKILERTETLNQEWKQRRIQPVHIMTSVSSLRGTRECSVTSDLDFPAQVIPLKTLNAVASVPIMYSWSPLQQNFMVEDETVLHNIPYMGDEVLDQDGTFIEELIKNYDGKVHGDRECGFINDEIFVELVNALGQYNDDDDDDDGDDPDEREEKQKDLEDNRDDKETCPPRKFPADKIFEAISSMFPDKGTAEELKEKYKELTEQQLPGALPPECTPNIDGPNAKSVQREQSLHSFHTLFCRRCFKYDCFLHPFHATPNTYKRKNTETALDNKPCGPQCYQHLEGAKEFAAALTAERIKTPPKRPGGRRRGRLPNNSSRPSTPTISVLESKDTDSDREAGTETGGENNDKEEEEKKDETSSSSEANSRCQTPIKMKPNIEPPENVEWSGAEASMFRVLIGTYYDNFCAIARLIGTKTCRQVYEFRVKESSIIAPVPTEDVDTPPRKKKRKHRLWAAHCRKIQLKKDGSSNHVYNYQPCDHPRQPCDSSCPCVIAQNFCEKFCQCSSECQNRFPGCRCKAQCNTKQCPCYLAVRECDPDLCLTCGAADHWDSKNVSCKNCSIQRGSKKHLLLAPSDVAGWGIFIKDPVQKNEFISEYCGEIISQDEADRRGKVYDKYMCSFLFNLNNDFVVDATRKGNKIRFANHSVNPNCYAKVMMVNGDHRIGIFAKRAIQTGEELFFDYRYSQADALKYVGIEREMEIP

Biological target: EZH2 (endogenous, mouse lung tumors) (mouse (endogenous in conditional KRAS-G12D mouse lung tumors)) (UniProt Q61188)
Assay: co-IP; lung tumor extracts of the conditional KRAS-G12D mouse; IP with EZH2 or mock IgG antibodies, IB with DLC1 antibodies

- binding: binds
B1: DLC1 (endogenous, mouse lung tumors) (protein, UniProt Q9R0Z9 1-1092)
chain: MCRDEPDTMILTQIEAKEACDWLRVTGFPQYAQLYEDLLFPVDIALVKREHDFLDRDAIEALCRRLNTLNKCAVMKLEISPHRKRSEDSDEDEPCAISGKWTFQRDSKRWSRLEEFDVFFPKQDPIPGSPDNSRLQSATSHESMLTDLSEHQEVASVRSLSSTSSSVPTHAAHSGDATTPRTNSVISVCSSGHFVGNDDSFSSLPSPKELSSFSFSMKGHHEKNTKSKTRSLLKRMESLKLKGSHHSKHKAPSKLGLIISAPILQEGMDEAKLKQLNCVEISALNGNHINVPMVRKRSVSNSTQTSSSSSQSETSSAVSTPSPVTRTRSLSTCNKRVGMYLEGFDPFSQSTLNNVTEQNYKNRESYPEDTVFYIPEDHKPGTFPKALSHGSFCPSGNSSVNWRTGSFHGPGHLSLRRENSHDSPKELKRRNSSSSLSSRLSIYDNVPGSILYSSSGELADLENEDIFPELDDILYHVKGMQRIVNQWSEKFSDEGDSDSALDSVSPCPSSPKQIHLDVDHDRRTPSDLDSTGNSLNEPEEPTDIPERRDSGVGASLTRCNRHRLRWHSFQSSHRPSLNSVSLQINCQSVAQMNLLQKYSLLKLTALLEKYTPSNKHGFSWAVPKFMKRIKVPDYKDRSVFGVPLTVNVQRSGQPLPQSIQQAMRYLRNHCLDQVGLFRKSGVKSRIQALRQMNESAEDNVNYEGQSAYDVADMLKQYFRDLPEPLMTNKLSETFLQIYQYVPKDQRLQAIKAAIMLLPDENREVLQTLLYFLSDVTAAVKENQMTPTNLAVCLAPSLFHLNTLKRENSSPRVMQRKQSLGKPDQKDLNENLAATQGLAHMIAECKKLFQVPEEMSRCRNSYTEQELKPLTLEALGHLNSDQPADYRHFLQDCVDGLFKEVKEKFKGWVSYPTSEQADLSYKKVSEGPPLRLWRSTIEVPAAPEEILKRLLKEQHLWDVDLLDSKVIEILDSQTEIYQYVQNSMAPHPARDYVVLRTWRTNLPRGACALLLTSVDHDRAPVAGVRVNVLLSRYLIEPCGSGKSKLTYMCRADLRGHMPEWYSKSFGHLCAAEVVKIRDSFSNQNTESKDTRSR
